These are yes or no findings as the source states them, for the method shown. Some binding calls cover weakened binding; strength is not graded here. For some of these results: Where a sequence is shown, tags or fusion partners need not be part of it. Where no end group is shown, it is not given here.
T1: TNFR1 fragment M4 (H-…-OH) (human)
T1 sequence (peptide): HHHHHHLKPGTT

Sequences of proteins named here, by UniProt entry; tags and fusion partners are left off. A change or cut given only in a name is not applied to a line headed by its entry.
UniProt P19438: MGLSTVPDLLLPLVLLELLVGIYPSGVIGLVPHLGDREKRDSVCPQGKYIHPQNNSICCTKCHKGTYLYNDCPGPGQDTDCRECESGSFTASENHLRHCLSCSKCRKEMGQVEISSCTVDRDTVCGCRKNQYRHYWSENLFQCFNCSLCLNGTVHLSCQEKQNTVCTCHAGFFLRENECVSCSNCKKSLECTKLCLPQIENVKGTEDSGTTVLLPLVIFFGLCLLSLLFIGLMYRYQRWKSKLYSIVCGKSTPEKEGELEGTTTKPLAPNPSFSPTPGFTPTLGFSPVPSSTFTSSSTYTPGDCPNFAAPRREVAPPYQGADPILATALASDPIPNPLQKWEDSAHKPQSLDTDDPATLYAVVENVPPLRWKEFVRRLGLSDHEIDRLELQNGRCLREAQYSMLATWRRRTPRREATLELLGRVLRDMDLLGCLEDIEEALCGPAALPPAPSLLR


Assays:
[1] = molecular target: T1, TNFR1 fragment M4 (H-…-OH) (human); assay: ELISA on plates coated with M4 peptide, streptavidin-HRP, absorbance at 450 nm
[2] = molecular target: recombinant human soluble TNF receptor inhibitor/Fc chimera (rHusTNFRI) (human) (UniProt P19438); assay: solid-phase binding ELISA, streptavidin-HRP detection
[3] = molecular target: recombinant human soluble TNF receptor inhibitor/Fc chimera (rHusTNFRI) (human) (UniProt P19438); assay: solid-phase competition ELISA against biotinylated TNF70-80
[4] = molecular target: recombinant human soluble TNF receptor inhibitor/Fc chimera (rHusTNFRI) (human) (UniProt P19438); assay: solid-phase competition ELISA on immobilised rHusTNFRI

binding [1]	binding [2]	binding [3]	binding [4]	Binder
binds	binds	–	–	PSTHVLITHTI (biotin label, position not stated) [biotin-labelled TNF70-80]
–	–	binds	binds	PSTHVLITHTI-OH (4; also called Peptide A; TNF mimetic peptide) [TNF70-80 (Pro-Ser-Thr-His-Val-Leu-Ile-Thr-His-Thr-Ile-OH)]
